T1: 1019700::mCherry (PBANKA_1019700, NTF2-like domain-containing protein, fused to mCherry) (Plasmodium berghei ANKA)
T1 sequence: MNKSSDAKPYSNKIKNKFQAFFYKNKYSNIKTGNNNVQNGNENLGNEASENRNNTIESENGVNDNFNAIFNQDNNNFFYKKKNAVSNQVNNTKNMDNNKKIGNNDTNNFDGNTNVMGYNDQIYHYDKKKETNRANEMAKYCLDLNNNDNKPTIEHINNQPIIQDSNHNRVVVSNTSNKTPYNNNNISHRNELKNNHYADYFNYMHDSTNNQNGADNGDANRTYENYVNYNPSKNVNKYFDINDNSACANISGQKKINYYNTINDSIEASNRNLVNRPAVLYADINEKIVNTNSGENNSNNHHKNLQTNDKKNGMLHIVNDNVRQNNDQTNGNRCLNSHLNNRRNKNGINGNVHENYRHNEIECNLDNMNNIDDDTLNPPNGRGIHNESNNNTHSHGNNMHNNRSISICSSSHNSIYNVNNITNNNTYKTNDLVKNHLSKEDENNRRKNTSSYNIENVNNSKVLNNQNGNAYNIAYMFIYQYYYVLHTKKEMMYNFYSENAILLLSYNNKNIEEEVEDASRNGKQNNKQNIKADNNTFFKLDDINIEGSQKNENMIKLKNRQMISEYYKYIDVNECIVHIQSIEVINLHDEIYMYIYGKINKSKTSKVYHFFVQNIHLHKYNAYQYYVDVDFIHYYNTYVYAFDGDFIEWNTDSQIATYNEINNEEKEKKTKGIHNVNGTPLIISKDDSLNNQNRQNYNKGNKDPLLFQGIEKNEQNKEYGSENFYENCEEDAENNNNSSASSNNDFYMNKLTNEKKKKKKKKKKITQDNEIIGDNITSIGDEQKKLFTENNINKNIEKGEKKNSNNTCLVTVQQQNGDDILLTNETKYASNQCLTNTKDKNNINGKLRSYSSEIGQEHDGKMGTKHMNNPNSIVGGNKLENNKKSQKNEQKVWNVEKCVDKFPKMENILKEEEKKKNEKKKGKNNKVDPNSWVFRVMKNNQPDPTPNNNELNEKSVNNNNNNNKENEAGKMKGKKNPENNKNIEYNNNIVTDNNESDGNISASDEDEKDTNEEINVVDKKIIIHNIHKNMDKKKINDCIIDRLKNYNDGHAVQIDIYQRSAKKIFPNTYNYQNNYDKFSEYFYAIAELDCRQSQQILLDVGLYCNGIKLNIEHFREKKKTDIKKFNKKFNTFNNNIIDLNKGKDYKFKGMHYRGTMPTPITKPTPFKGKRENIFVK

Chains of the proteins cited; added tags and fusions are not shown.
UniProt A0A509AQW2: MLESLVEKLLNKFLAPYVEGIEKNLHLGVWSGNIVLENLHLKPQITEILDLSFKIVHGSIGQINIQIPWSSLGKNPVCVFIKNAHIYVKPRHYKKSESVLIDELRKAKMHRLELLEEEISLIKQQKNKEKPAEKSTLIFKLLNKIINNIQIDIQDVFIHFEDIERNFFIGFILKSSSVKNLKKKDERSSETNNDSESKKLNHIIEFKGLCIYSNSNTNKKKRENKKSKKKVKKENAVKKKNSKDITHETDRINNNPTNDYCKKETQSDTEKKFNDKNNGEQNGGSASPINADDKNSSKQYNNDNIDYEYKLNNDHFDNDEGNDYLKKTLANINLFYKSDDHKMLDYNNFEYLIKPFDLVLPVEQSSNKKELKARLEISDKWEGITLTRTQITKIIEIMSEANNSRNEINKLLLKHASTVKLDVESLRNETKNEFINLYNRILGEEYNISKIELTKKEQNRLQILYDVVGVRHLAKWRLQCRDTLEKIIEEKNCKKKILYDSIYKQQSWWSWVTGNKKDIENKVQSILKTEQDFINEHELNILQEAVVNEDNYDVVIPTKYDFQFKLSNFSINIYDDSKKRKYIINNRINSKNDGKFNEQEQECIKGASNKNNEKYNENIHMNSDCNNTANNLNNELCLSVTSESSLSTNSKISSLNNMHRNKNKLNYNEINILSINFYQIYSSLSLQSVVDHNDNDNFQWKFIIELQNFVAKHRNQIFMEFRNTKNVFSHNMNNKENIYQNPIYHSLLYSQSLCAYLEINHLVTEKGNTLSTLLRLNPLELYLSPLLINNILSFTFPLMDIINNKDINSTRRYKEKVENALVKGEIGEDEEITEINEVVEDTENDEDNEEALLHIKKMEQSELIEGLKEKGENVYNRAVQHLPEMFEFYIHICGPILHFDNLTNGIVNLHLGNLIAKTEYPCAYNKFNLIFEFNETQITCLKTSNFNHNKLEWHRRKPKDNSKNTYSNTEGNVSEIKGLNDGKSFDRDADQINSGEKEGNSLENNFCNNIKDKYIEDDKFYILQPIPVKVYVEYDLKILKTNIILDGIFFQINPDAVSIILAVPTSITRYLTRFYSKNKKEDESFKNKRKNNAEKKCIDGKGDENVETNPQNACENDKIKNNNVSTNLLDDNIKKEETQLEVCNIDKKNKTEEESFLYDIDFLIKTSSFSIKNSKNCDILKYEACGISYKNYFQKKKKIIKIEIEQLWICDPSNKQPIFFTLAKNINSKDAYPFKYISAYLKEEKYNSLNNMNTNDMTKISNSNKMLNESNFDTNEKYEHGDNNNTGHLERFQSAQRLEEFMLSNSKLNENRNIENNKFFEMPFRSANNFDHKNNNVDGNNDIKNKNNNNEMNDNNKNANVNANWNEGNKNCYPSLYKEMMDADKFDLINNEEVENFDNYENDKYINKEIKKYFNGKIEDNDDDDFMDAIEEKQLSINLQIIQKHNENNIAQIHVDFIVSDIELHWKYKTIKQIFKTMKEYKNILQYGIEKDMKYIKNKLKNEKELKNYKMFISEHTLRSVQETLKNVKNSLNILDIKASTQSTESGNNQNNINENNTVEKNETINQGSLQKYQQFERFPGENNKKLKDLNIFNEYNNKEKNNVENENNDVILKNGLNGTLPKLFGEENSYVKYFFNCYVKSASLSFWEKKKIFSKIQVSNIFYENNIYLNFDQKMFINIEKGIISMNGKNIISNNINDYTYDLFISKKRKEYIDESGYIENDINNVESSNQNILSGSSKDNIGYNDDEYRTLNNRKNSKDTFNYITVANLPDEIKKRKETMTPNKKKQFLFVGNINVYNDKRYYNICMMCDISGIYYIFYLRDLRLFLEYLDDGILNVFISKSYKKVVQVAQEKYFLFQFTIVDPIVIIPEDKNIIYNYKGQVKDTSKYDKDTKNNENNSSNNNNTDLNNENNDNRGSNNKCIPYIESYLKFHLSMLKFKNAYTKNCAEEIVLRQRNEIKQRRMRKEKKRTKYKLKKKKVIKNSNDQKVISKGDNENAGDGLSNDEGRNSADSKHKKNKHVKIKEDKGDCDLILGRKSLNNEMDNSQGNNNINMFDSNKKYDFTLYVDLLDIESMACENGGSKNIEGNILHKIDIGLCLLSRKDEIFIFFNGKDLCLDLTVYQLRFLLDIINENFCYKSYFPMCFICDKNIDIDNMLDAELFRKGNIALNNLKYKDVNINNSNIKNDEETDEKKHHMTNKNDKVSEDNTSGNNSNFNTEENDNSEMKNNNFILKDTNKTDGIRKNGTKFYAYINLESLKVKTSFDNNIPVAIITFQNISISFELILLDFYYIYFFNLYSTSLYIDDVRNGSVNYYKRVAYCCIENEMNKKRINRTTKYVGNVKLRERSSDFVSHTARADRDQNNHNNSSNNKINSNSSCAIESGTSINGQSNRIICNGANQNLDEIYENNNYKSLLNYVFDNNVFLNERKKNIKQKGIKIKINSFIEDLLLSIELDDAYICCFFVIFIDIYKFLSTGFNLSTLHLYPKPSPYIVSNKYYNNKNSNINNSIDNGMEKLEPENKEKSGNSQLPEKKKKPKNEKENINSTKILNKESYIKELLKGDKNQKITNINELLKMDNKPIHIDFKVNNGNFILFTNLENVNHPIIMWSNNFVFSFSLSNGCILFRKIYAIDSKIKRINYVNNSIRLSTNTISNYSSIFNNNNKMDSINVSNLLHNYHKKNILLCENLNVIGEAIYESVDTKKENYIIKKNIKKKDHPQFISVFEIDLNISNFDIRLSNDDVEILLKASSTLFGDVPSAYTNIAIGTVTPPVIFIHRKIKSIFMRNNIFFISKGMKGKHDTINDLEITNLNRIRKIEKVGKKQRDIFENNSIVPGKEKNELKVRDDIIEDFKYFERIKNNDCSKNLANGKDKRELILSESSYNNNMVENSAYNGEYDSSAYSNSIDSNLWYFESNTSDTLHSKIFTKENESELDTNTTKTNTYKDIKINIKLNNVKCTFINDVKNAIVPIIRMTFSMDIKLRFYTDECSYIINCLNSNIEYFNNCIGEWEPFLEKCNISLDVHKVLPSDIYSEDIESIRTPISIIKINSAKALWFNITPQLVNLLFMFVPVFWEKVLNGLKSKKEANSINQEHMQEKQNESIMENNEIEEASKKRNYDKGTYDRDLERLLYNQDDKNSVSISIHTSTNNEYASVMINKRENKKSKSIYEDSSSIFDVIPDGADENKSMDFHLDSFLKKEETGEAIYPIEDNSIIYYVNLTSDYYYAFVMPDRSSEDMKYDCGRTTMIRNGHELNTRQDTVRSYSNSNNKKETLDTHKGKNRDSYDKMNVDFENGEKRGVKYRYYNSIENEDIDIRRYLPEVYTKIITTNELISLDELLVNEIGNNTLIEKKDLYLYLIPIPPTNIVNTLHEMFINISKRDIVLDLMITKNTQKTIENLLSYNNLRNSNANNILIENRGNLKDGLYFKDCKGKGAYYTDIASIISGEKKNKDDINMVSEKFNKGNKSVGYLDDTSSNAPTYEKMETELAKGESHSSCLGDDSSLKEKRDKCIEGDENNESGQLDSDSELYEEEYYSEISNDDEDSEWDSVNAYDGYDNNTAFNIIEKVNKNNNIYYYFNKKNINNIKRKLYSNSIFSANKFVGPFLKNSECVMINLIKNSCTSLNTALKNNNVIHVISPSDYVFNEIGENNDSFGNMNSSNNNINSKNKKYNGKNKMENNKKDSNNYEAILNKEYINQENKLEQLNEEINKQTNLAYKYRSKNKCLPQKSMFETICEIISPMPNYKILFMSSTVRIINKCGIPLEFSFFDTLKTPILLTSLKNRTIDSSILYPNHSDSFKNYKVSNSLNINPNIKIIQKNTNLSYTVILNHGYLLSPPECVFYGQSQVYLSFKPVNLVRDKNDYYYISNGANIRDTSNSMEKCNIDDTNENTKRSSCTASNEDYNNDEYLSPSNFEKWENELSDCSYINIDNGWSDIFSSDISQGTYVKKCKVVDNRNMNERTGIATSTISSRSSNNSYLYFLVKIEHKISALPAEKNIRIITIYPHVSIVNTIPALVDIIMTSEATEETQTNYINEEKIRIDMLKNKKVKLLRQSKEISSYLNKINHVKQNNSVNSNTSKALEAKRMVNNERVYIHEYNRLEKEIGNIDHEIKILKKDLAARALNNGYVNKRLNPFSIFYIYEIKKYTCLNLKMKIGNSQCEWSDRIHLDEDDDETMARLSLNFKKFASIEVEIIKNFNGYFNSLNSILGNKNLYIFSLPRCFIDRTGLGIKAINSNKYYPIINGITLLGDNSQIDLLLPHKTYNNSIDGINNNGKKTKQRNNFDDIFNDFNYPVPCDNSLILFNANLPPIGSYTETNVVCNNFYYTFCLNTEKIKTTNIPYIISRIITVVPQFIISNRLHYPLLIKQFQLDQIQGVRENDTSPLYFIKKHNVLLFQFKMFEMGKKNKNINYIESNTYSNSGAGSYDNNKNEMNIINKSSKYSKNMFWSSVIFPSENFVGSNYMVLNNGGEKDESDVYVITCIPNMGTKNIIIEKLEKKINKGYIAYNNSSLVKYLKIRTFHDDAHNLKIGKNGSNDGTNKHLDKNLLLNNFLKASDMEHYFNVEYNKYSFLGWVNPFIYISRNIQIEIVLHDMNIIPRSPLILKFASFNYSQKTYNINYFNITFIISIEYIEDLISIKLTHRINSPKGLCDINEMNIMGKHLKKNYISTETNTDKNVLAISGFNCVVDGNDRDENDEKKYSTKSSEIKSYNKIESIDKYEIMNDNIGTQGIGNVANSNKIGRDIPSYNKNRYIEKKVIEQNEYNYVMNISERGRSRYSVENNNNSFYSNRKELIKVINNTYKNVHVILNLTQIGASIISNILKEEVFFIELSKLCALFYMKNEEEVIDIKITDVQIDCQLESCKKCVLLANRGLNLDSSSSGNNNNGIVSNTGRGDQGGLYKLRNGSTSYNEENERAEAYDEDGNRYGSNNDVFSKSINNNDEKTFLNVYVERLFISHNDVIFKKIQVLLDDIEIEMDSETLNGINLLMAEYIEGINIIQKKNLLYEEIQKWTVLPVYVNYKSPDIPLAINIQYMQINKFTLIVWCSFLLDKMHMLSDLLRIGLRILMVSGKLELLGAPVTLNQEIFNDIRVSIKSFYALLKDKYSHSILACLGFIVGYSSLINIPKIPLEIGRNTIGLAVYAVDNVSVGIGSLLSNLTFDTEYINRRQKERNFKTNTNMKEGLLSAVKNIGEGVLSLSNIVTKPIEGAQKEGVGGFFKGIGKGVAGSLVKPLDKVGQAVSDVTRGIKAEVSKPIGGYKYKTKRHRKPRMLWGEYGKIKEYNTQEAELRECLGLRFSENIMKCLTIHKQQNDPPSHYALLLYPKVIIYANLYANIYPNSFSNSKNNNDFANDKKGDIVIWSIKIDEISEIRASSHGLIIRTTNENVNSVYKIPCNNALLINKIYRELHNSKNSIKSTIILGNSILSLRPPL
UniProt A0A509ADJ6: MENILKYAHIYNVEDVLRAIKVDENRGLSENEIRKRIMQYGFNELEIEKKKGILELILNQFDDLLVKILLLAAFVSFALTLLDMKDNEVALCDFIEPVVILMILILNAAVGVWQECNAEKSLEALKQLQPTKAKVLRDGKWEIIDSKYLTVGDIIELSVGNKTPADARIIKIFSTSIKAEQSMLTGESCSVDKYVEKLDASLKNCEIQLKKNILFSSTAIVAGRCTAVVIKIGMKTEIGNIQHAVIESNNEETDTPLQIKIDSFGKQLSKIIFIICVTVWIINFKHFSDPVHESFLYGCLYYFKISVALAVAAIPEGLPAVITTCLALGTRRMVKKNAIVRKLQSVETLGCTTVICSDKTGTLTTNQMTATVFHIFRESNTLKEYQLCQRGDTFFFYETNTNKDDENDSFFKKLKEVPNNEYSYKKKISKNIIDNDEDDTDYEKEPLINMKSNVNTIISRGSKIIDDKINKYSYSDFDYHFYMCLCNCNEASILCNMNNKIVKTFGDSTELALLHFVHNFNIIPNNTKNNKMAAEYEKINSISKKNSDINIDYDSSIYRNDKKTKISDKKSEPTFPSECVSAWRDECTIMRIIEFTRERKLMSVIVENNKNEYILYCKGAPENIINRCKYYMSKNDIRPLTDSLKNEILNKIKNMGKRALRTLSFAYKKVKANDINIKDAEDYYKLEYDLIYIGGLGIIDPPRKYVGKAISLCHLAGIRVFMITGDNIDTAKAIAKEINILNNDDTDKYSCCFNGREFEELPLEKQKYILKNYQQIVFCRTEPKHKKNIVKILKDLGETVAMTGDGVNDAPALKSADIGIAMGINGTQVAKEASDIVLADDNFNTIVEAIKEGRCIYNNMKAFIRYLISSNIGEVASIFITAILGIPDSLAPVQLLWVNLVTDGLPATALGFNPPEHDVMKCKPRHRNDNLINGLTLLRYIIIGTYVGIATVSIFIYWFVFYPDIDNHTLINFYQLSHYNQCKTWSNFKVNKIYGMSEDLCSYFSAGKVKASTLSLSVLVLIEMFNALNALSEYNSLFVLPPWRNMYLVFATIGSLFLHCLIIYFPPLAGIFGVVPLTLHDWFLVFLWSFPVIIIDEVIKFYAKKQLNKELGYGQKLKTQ

B1: PBANKA_1012800, voltage-dependent anion-selective channel protein, putative (protein, UniProt A0A509AQY7 1-289)
chain: MDFPKLLNKPSLDLIKNDFPHSNKFELEHISVSKQPFLKSGFTFSNNTYNIYTNFKNNVYNTKNELKFDNSGISLLDIKYEPNFVKNLNICGKYTKSNEKKEDSFEVYGEYTSENMSIFSSINVRNFFFKYIHVGSHPKCPNFKFGGMVQGDLDYKNLQYSLGGAYTKNYFDKQYIFSFRSLPTNKCLYGTVALNLFFQNKNINDNAVSIELLQNILEKKATINIASIWYLNDKNTAVKTKISNDTKVALSLTHKYNEFMTISLGSQVDITKMSLPDSSKFGIKLYLKS
B2: PBANKA_0415500, coatomer subunit beta, putative (protein, UniProt A0A509AFQ6 1-999)
chain: MPLNLDIKKKLNSRIGKVKCVDIHENEPWILAALYNGKLIIFDYSNQNTIKNIEVSGYPLRCAKFIEKKQWIICTGDDMIIRVYNYNTFEKIIFFEGHSDYIRYIEVHQTLPYILTCSDDMSIKLYDYENNFEKLCSFENHVHYVMMCKFNPKDTYIFASASLDKTIKIWGVQNNMPVVTKPHFTLTGHIKGVNCIDYSSSGETSYIISGSDDKTIRVWDYHTKQCVHILSGHTQNISCLIYHSNLPIIISSSEDCNVKIWNSSMYKLETTLNYNMDKCWSICAKKTKNDLCIGYDEGLIVIQMGSDKPIYTMFKNKIIYIKNADIFIINLQNINNEDNYNDGDIYKVNKKELGNCDFYPTNVSFHPNGRFVCVSGHQEFNIYTSQVLRNKAYGKSPFFVWGNNGDYAIKDEGNKIVIYKEFTAFHSFQTPYNITELFGGYLLGVKSNNFICFYDWNYYNMIRKIDINVKNVYWNDSGTYVAISTEESVYILSYNTKDETSNKDMKCLEPNDNINMGEENGNIVDENNFELENEINEYIESGIWIYDSFVYVSRNLRLYIYTKKFNDIYVYIDKYLYICGYVYEYDRIFLLDTNYNFYSFHIPIAYLQYQKYIINKDFEFADNLLSTIPEYLHNKLSLFLEKMGYKNKALTICTDLEKKFELALSIGNLQLCIEIIKQIENKEDKATVQNKYKALGDTSLIYNDISMAIHCYKKTNDYSSLLIILSTLGDKIGIEELGKICLKNKKYNIAFICYFLLHKINKCVDILVKSKNYAYASFFSRIYKPSLLPNILLKWKNNLNKTYQISPIELLTPDKNPEYFPDYELAIKCESIFEKTQTLGVTQNYSTLKKLIDINIMDEINEIGYEQVENIFVKQFDIDLEKDVKNFDMINSLSSVQKKETTIKSINEIIDKEYVENKTDSNSSNLKRESFVSENNNTSFSNSHEINQNSNDSYKKNSKKTSNNSDNLANLNNSDENISFEMKNETFNSVNDQIDKESE
B3: PBANKA_0823000, ubiquitin-like protein, putative (protein, UniProt A0A509AIS7 1-1384)
chain: MEEENIKIKVKSIDNQECEFCVKKNTTTEELKGMISEKKNVDINDIRLIYQGQCLSNTKTIAEYNIQNDHIIHLVIRKKENVNNSAYEKTNQFKNIDQDNNNNNYASSSTPINDPLQYGFASNINFNNVNNNGNTTDNNNRPFGNTTIPTTNIGGATPLYFTHMRLTRNDNLENDIMSQTNMCSLLNDIMSQVNINPNFIYGAAASAVNSVGSGENFFTANIRPNDANVNINEFRANKEKDANIASSPNVGNKQKDMDKDETEKESENISNEINCNDVEKSGEKGTNNNNNCGNVNSEHNKQKSEKQTNNKLPKEGKNREKKNNSSSSSSSENSSYEYNKNNKESDEDKKKKLKKKLKKKLKKKYMQKIRNKYSSDDKINKYNEKNLKKENINDIYSSSYNSNYESSYSENSDTKERELDDEKKKRHKNKILEKLRKKKEKKKKKKYYYSTNSSSDYDKIYEQNEKKKKKKRNKAKFIFDPNLLYNPNYMRNIYRGMYNPGQYPPYITNFNNGNSLRANTNFNNIFNNNSSVFRNIPYPYINGNDMNRSMFYYDQKCANISENENYVNFKDGMHDEYENIKGFVNKRFYKREELNTNDKKRIINMNKNKNISDANNNSEILFGSNFCNNNVHTGNRSMNDAQNLIKNSNDCFTGGILNGVTPQNSNNTTTTNNNVNSNNRNDYANIIPFSDVEIVRNNLVRTNSRGTLSQGGEELSENNLIDEHMRSIQMASNNIRHLRSTSKLLNDENDFEYKNIELNIPWRIMEQLLVLLEEETGYKRPNLSSYINSYYNTNSIYVFFNLFVHINNIINSIIIQFNHSNFLNNDISMSSFSRISIILSLASVIFSRLSNFFFVFYDNFYCNNYGRSYRYSEPINHEYLRELRNFYYSSNRNNNIRNSNISNFNYDPNNIFDNHRINPNKTNLQQEFEEYYKNYLSGIDINMNNNVLLRKDHKNFKTNNLDDNIFSQDNYITHYRFKNKHKLSNSFMDPKGNKYNNNKFTDLKNHLKTDKDWNTNNPFSTLQNYNKKHNPLLYISKKKKKGNKKNGEPTQKNDKDINKNPSICSSKNSHNNSSNFDNNKNNESEIKKFLEPNVVDSSTQNTKDKGNFMIDIFKNILKNEPEEKITENNINDKNCLKNTEKTNNNFPNTTLACYDNNMDDMYGTSDEEKDQTNNHIHIQSNIIPQKDSTNNPLFSEQNEKLQENNGKPNDEKNNSVDIQKNNQAVVNNLSIPNINFANILNDVQNQLATHKAPEAPQRDKFDGIPDKVKERYVNWTENTQIFSGQMIKICRNKRPLSYVYLGENSLNEDISYNNPLPFLWKKNMSNINASFDLEIPDELVEAFDMHILEYVQKSIKNNEDYKLEKFKYPNLSKCEEFFDEADKN

These results are taken from paper PMC10777651.

These are yes or no findings as the source states them, for the method shown. In cells and extracts the contact can be indirect. These calls come from enrichment with a bait or labelling near it, and not all partners need be listed. No binding means not detected with the bait. Tags and fused reporters may be left off the sequences shown.

This assay deals with T1, 1019700::mCherry (PBANKA_1019700, NTF2-like domain-containing protein, fused to mCherry) (Plasmodium berghei ANKA). In words: affinity purification with mass spectrometry; IP of 1019700::mCherry with RFP-Trap agarose (anti-mCherry beads) from extracts of schizont- and gametocyte-enriched cultures after 22 h of culturing; nanoLC-MS/MS; control: wild-type P. berghei ANKA; three independent experiments.
Consider “GBP2 (G-strand binding protein 2) of P. berghei”, for which the binding result is on record as “no binding”.

“PBANKA_0210600, ubiquitin carboxyl-terminal hydrolase, putative (from UniProt A0A509AEF7 1-2788)”: the binding result was “binds”. On to “PBANKA_1359300, VPS13 domain-containing protein, putative (from UniProt A0A509AQW2 1-5434)”, for which the binding entry was “binds”.

As for “PBANKA_0316200, Plasmodium exported protein, unknown function (from UniProt A0A509AHX0 1-1739)”, the binding entry was “binds”.

As to “PBANKA_0519900, conserved Plasmodium protein, unknown function (from UniProt A0A509AGW1 1-1591)”, the binding entry is recorded as “binds”. The result for “PBANKA_0802300, HECT-type E3 ubiquitin ligase UT, putative (from UniProt A0A509AGE6 1-3439)” reads “binds”; that for “NAB2 (nuclear poly(A) binding protein 2) of P. berghei”, “no binding”; that for “PBANKA_1310800, 40S ribosomal protein S5, putative (from UniProt A0A509APS9 1-271)”, “binds”. Turning to “PBANKA_0207000, calcium-transporting ATPase, putative (from UniProt A0A509ADJ6 1-1120)”, the binding entry is given as “binds”. Regarding “PBANKA_1438300, phospholipid-transporting ATPase, putative (from UniProt A0A509B0P7 1-1603)”, the binding result is “binds”. As to B1, the binding entry is recorded as “binds”. B2: the binding entry is reported as “binds”. For B3, the binding result was “binds”.
